Paper PMC3928049
Results are given in words; binding and its absence hold for the method and conditions named. Binding seen in cells or lysates may run through a third protein. Sequences can lack the tags named with a protein.

Legend:
Assay in all cases: pull-down; 6 ug resin-bound MBP fusion protein added to 250 ug total protein extract of DEX-induced transgenic Arabidopsis seedlings, 1 h at 4 C with rotation; 50 mM Tris-HCl pH 7.4, 150 mM NaCl, 10% glycerol, 0.2% NP-40, MG132 and protease inhibitors; anti-HA immunoblot; only the target purified
MBP-JAZ4 (Arabidopsis) = molecular target: T1, MBP-JAZ4 (Arabidopsis) (UniProt Q58G47)
T1 sequence: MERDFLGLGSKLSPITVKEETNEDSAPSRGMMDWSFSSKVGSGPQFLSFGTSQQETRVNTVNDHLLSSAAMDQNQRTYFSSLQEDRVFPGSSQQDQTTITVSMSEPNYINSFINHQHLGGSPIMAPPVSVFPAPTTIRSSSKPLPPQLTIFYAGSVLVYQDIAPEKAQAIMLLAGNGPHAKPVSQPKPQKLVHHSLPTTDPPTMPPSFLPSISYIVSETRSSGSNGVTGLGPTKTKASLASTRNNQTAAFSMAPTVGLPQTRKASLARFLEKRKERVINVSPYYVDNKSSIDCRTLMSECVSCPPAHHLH

MBP-JAZ9 (Arabidopsis) = molecular target: T2, MBP-JAZ9 (Arabidopsis) (UniProt Q8W4J8)
T2 sequence: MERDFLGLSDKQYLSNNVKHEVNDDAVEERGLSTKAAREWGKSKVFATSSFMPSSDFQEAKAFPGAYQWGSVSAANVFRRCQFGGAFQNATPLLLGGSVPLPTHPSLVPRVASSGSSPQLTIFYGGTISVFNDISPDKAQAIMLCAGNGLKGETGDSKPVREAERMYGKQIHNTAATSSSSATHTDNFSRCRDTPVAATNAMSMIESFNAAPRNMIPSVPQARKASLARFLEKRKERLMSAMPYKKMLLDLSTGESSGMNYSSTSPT

MBP-JAZ10 (Arabidopsis) = molecular target: T3, MBP-JAZ10 (Arabidopsis) (UniProt Q93ZM9)
T3 sequence: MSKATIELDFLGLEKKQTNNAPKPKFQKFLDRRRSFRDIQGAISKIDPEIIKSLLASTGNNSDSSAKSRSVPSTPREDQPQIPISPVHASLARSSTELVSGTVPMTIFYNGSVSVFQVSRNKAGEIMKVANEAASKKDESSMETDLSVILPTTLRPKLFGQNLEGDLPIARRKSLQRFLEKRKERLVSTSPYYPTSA

MBP-JAZ7 (Arabidopsis) = molecular target: T4, MBP-JAZ7 (Arabidopsis) (UniProt O64687)
T4 sequence: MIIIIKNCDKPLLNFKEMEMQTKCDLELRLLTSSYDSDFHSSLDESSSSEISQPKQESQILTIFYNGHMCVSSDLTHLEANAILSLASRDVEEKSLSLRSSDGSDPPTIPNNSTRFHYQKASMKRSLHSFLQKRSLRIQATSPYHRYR

MBP-JAZ3 (Arabidopsis) = molecular target: T5, MBP-JAZ3 (Arabidopsis) (UniProt Q9LVI4)
T5 sequence: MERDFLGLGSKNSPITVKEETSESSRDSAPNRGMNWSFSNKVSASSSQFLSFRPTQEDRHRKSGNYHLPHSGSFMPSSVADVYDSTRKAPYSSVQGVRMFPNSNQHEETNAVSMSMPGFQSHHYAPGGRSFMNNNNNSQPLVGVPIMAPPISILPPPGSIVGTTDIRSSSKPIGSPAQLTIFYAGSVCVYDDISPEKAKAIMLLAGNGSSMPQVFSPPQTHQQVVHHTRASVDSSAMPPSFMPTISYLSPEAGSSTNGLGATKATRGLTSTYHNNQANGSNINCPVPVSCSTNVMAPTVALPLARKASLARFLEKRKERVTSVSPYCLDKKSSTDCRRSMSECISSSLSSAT

MBP-JAZ11 (Arabidopsis) = molecular target: T6, MBP-JAZ11 (Arabidopsis) (UniProt Q9M246)
T6 sequence: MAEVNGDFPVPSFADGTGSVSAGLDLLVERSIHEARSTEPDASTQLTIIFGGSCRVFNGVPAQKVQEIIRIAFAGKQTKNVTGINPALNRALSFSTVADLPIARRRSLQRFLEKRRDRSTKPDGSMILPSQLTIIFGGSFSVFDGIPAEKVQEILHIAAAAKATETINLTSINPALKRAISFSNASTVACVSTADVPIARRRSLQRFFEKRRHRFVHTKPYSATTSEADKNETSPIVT

MBP-JAZ8 (Arabidopsis) = molecular target: T7, MBP-JAZ8 (Arabidopsis) (UniProt Q8LBM2)
T7 sequence: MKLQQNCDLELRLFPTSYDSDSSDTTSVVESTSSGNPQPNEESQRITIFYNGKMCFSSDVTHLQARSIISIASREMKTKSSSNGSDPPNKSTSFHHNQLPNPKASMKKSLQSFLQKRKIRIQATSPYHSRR

Measured: binding

HopX1^C179A-HA (Pseudomonas syringae pv. tabaci 11528)
no binding: all assays above
